Source: the supplement of paper PMC12009310
Structures can show the parent of a compound that is named as a salt. ± gives the standard deviation of the averaged measurements. Some of the results follow. Plates or batches differ in their baseline, so values are only roughly comparable.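 The cells are a mouse kidney inner medullary collecting duct line, silenced either for the ciliary gene Rpgrip1l or with a non-targeting control siRNA.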

How the values were obtained:
[1] = tested on: mIMCD3; assay: robust z score of cell number vs plate controls; higher = more cells (less cytotoxic); conditions: 10 µM, 48 h
[2] = tested on: mIMCD3; assay: robust z score of cilia incidence (% cells with single cilium) vs plate controls; higher = more ciliated cells; conditions: 10 µM; 48 h; siRNA: siScr
[3] = tested on: mIMCD3; assay: robust z score of cilia incidence (% cells with single cilium) vs plate controls; higher = more ciliated cells (rescue of cilia loss); conditions: 10 µM; 48 h; siRNA: siRpgrip1l

SMILES	robust z score of cell number ([1]; siRNA: siRpgrip1l)	robust z score of cell number ([1]; siRNA: siScr)	robust z score of cilia incidence [2]	robust z score of cilia incidence [3]
O=C(O)C1=CCCN(CCOC(c2ccc(C(F)(F)F)cc2)c2ccc(C(F)(F)F)cc2)C1 [CI 966 hydrochloride]	-49.7 ± 40	-5.48 ± 2.2	8.26 ± 4.6	-5.89 ± 2.4
OC1CCCCC1N1CCC(c2ccccc2)CC1 (racemic) [(±)-Vesamicol hydrochloride]	-13.1 ± 8.8	-13.5 ± 15	-3.14 ± 0.12	-12.8 ± 5.2
Oc1ccc2c3c1O[C@H]1c4[nH]c5c(c4C[C@@]4(O)[C@@H](C2)N(CC2CC2)CC[C@]314)C[C@@]1(O)[C@H]2Cc3ccc(O)c4c3[C@@]1(CCN2CC1CC1)[C@H]5O4 [nor-Binaltorphimine dihydrochloride]	12.2 ± 16	-2.92 ± 5.5	2.17 ± 1.3	-4.87 ± 5.3
O=c1[nH]c2ccccc2n1C1CCN(CCCC(c2ccc(F)cc2)c2ccc(F)cc2)CC1 [Pimozide]	-30.78 ± 0.28	-29.6 ± 15	-47.8 ± 10	-28.3 ± 4.5
N[C@H](C(=O)O)c1cc(O)no1 [Ibotenic acid]	1.01 ± 3.4	3.44 ± 2.5	4.4 ± 1.8	-7.89 ± 3.2
C[C@H](N)Cn1ccc2cc(F)c(Cl)cc21 [Ro 60-0175 fumarate]	-11 ± 6.5	-13.9 ± 3.6	-24.5 ± 27	-36.9 ± 19
CC[C@@]1(O)C(=O)OCc2c1cc1n(c2=O)Cc2cc3ccccc3nc2-1 [Camptothecin]	-60 ± 51	-51.3 ± 1.6	-49.9 ± 15	-29.3 ± 0.61
c1ccc(CCCN2CCN(CCOC(c3ccccc3)c3ccccc3)CC2)cc1	-96.9 ± 57	-156 ± 140	-11.4 ± 3.7	-24.2 ± 9.5
NC(C(=O)O)c1nn[nH]n1 (racemic) [(RS)-(Tetrazol-5-yl)glycine]	3.57 ± 3.1	3.33 ± 3.1	2.72 ± 1.9	-8.94 ± 7.7
O=C1CN=C(c2cccc(Br)c2)c2oc3ccccc3c2N1	-15 ± 15	-0.858 ± 1.3	0.896 ± 1.3	-6.63 ± 2.8
Cc1nnc2ccc(-c3cccc(C(F)(F)F)c3)nn12	-3.81 ± 4.4	-5.22 ± 4.5	-1.07 ± 12	-14.7 ± 2.3
C[C@@]12N[C@@H](Cc3ccccc31)c1ccccc12 [(-)-MK 801 maleate]	-2.32 ± 0.76	0.567 ± 1.1	-4.1 ± 4.3	-8.89 ± 3.2
CCOC(=O)c1ncn2c1CN(C)C(=O)c1cc(N=[N+]=[N-])ccc1-2	-5.07 ± 0.25	1.64 ± 5.1	1.84 ± 2.3	-15.1 ± 8.6
N[C@@H](Cn1oc(=O)[nH]c1=O)C(=O)O [L-Quisqualic acid]	3.9 ± 4.3	-7.27 ± 12	0.0286 ± 3.1	-7.66 ± 8
COc1cc2c(c(OC)c1OC)-c1ccc(OC)c(=O)cc1[C@@H](NC(C)=O)CC2 [Colchicine]	-54.3 ± 46	-47.7 ± 2.2	-78.3 ± 16	-43.2 ± 1.9
COc1ccc(-n2nc(C(F)(F)F)cc2-c2ccc(Cl)cc2)cc1	-192 ± 220	-44.5 ± 11	-25.2 ± 16	-153 ± 110
CS(=O)(=O)Nc1ccc(Cc2noc(-c3ccc4[nH]cc(CCN)c4c3)n2)cc1	-1.72 ± 1	-2.46 ± 1	1.39 ± 2.3	-5.64 ± 3.8
CN[C@@H]1C[C@@H](c2ccc(Cl)c(Cl)c2)c2ccccc21 [Indatraline hydrochloride]	-191 ± 210	-44.5 ± 11	-45.2 ± 11	-523 ± 300
Cn1cc(C(=O)C(=O)N[C@H]2CN3CCC2CC3)c2ccccc21	-13.8 ± 2.7	-16.3 ± 9.1	-29.6 ± 7.8	-23.8 ± 4.5
Oc1ccc2c3c1O[C@H]1c4c(c5ccccc5n4Cc4ccccc4)C[C@@]4(O)C(C2)N(CC2CC2)CC[C@]314 [N-Benzylnaltrindole hydrochloride]	-56.3 ± 18	-42.7 ± 6.9	-38 ± 6.1	-34.3 ± 11
COc1ccc2[nH]cc(C3=CCNCC3)c2c1	-7.59 ± 1.1	-6.44 ± 5.5	0.252 ± 5.2	-9.59 ± 2.4

SMILES	robust z score of cell number ([1]; siRNA: siRpgrip1l)	robust z score of cell number ([1]; siRNA: siScr)	robust z score of cilia incidence [2]	robust z score of cilia incidence [3]
Nc1ccncc1 [4-Aminopyridine]	1.32 ± 6.8	-0.862 ± 4.8	2.25 ± 1.6	-10.7 ± 8.5
C=CCN1CC[C@]23c4c5ccc(O)c4O[C@H]2/C(=N/NC(=O)c2ccccc2)CC[C@@]3(O)[C@H]1C5 [Naloxone benzoylhydrazone]	-22.3 ± 25	-3.07 ± 1.5	2.02 ± 2.5	-8.09 ± 1.6
Ic1cncc(OC[C@@H]2CCN2)c1	4.12 ± 8.2	1.57 ± 2.1	1.14 ± 0.23	-124 ± 110
O=C(N[C@H]1CN2CCC1CC2)c1ccc(Cl)cc1	-4.68 ± 3.6	0.818 ± 0.57	0.133 ± 0.66	-10.2 ± 6.2
O=C1C2CCN(CC2)C1(CO)CO	-11.2 ± 9.1	-13 ± 5.3	-9.99 ± 8	-31.7 ± 18
CN1[C@@H]2CC[C@H]1CC(OC(=O)N1Cc3ccccc3NC1=O)C2 (stereo partly drawn) [DAU 5884 hydrochloride]	-1.62 ± 0.64	-7.27 ± 11	-5.68 ± 1.5	-23.9 ± 13
CC(C)NCC(O)c1ccc(N)c(C#N)c1 (stereo not drawn) [Cimaterol]	-17.6 ± 22	-1.52 ± 5	0.119 ± 0.26	-4.61 ± 0.71
CC(C)(Cc1c[nH]c2ccc(Cl)cc12)NCCOc1ccccc1OCC1CC1	-30.616 ± 0.013	-29.8 ± 15	-47.7 ± 11	-30.3 ± 5
Oc1ccc2c3c1O[C@H]1c4[nH]c5ccccc5c4C[C@@]4(O)[C@@H](C2)N(CC2CC2)CC[C@]314 [Naltrindole hydrochloride]	-3.72 ± 1.1	-1.09 ± 3	1.29 ± 0.36	-5.39 ± 1
S=C=Nc1cccc(C2(N3CCCCC3)CCCCC2)c1 [Metaphit]	-8.58 ± 10	-12.3 ± 15	-0.156 ± 0.44	-7.79 ± 6.2
CCCN(CCC)C1CCc2ccc(O)cc2C1 (stereo not drawn) [7-Hydroxy-DPAT hydrobromide]	1.48 ± 2.2	-1.36 ± 0.86	-1.68 ± 0.7	-6.95 ± 2.8
COc1ccc(C[C@H]2NC[C@H](O)[C@H]2OC(C)=O)cc1 [Anisomycin]	-62.1 ± 53	-51.3 ± 2.2	-75.9 ± 6.8	-42.3 ± 6.6
CCCOc1ccc2[nH]cc(C3=CCNCC3)c2n1	-41.6 ± 40	0.75 ± 0.51	-1.49 ± 2.6	-7.26 ± 0.085
CC[N+](CC)(CCCNC1=CC(=O)C(NCCC[N+](CC)(CC)Cc2ccccc2)=CC1=O)Cc1ccccc1 [Benzoquinonium dibromide]	-5.11 ± 8	6.03 ± 0.14	0.436 ± 0.93	-10.6 ± 11
O=C1Nc2ccccc2C2(CCN(CCc3ccc(C(F)(F)F)cc3)CC2)O1	-41.1 ± 27	-52.3 ± 31	-31.3 ± 13	-55.1 ± 14
CCOC(=O)c1ncc2[nH]c3ccc(OCc4ccccc4)cc3c2c1COC	-30.5 ± 27	-29.6 ± 18	-38.7 ± 29	-43 ± 25
CN(C)c1ccc(/C=C2\CCCN=C2c2cccnc2)cc1 [DMAB-anabaseine dihydrochloride]	0.276 ± 3.5	-4.56 ± 9	-4.18 ± 1.7	-19 ± 13
CCCN1CCO[C@@H]2c3cc(O)ccc3OC[C@H]21	-33.6 ± 4.9	-2.21 ± 0.49	4.62 ± 6.6	-8.72 ± 1.6
NCC(O)c1ccc(O)cc1 (stereo not drawn) [Octopamine hydrochloride]	0.99 ± 5.2	1.6 ± 1.3	-0.706 ± 1.1	-10.5 ± 5.8
NP(N)(=O)NC(=O)c1ccc(F)cc1 [Flurofamide]	-3.63 ± 2.1	-3.49 ± 7.2	2.67 ± 1.5	-8.26 ± 3.9
CC(=O)C1=C(O)[C@@H]2[C@H]3c4c[nH]c5cccc(c45)C[C@H]3C(C)(C)N2C1=O [Cyclopiazonic Acid]	-33.7 ± 29	-25.4 ± 3.6	0.701 ± 9.2	-19.9 ± 5.6

In another format: entries from further up
SMILES | robust z score of cell number ([1]; siRNA: siRpgrip1l) | robust z score of cell number ([1]; siRNA: siScr) | robust z score of cilia incidence [2] | robust z score of cilia incidence [3]
NC(C(=O)O)c1nn[nH]n1 (racemic) [(RS)-(Tetrazol-5-yl)glycine] | 3.57 ± 3.1 | 3.33 ± 3.1 | 2.72 ± 1.9 | -8.94 ± 7.7
O=C1CN=C(c2cccc(Br)c2)c2oc3ccccc3c2N1 | -15 ± 15 | -0.858 ± 1.3 | 0.896 ± 1.3 | -6.63 ± 2.8
Cc1nnc2ccc(-c3cccc(C(F)(F)F)c3)nn12 | -3.81 ± 4.4 | -5.22 ± 4.5 | -1.07 ± 12 | -14.7 ± 2.3

Remaining list, next part.

SMILES	robust z score of cell number ([1]; siRNA: siRpgrip1l)	robust z score of cell number ([1]; siRNA: siScr)	robust z score of cilia incidence [2]	robust z score of cilia incidence [3]
Fc1ccc(C(OCCN2CCN(C/C=C/c3ccccc3)CC2)c2ccc(F)cc2)cc1	-125 ± 100	-83.4 ± 44	-46.5 ± 2.1	-47.8 ± 25
COc1ccc(C(=O)c2c(C)n(CCN3CCOCC3)c3cc(I)ccc23)cc1	-50 ± 40	-20.1 ± 4.2	-12.3 ± 0.58	-26.2 ± 6.2
C[C@H](N)Cc1cnc[nH]1 [(S)-(+)-a-Methylhistamine dihydrobromide]	4.17 ± 4.5	17.2 ± 20	1.09 ± 0.35	-12.5 ± 6.2
O=C1NC(=O)c2c1c1c3ccccc3[nH]c1c1[nH]c3ccccc3c21 [Arcyriaflavin A]	-14.9 ± 9.1	-13.7 ± 1.2	-4.55 ± 5.3	-13.9 ± 7.2
c1ccc(C2CNCc3ccccc32)cc1 (stereo not drawn) [4-Phenyl-1,2,3,4-tetrahydroisoquinoline hydrochloride]	-2.52 ± 3	-2.58 ± 0.36	-4.15 ± 1.8	-9.39 ± 1.6
CN1C(=O)CCS(=O)(=O)C1c1ccc(Cl)cc1 (stereo not drawn) [Chlormezanone]	0.198 ± 0.26	-8.96 ± 12	-0.0469 ± 4.8	-5.31 ± 3.9
CN1CCC(c2c[nH]c3ccc(O)cc23)CC1	-21.9 ± 15	-5.73 ± 2.4	0.561 ± 1.2	-11.8 ± 4.1
Cc1ncsc1CCCl [Chlormethiazole hydrochloride]	-2.19 ± 1.4	2.4 ± 4.2	-1.06 ± 4.7	-7.4 ± 2.7
C[C@@H](N)Cc1cnc[nH]1 [(R)-(-)- α-Methylhistamine dihydrobromide]	-2.96 ± 9.8	-4.75 ± 4.5	1.5 ± 1.5	-15.6 ± 2.5
CCCCCCC[n+]1ccc(-c2cc[n+](CCCCCCC)cc2)cc1 [DHBP dibromide]	-47.7 ± 15	-36.5 ± 5.7	-25.6 ± 1.6	-23.9 ± 3.2
C[N+]1(C)CCc2cc3c(cc2[C@H]1[C@@H]1OC(=O)c2c1ccc1c2OCO1)OCO3 [(-)-Bicuculline methochloride]	0.445 ± 3.8	-10.4 ± 6.3	-10.3 ± 4.6	-10.9 ± 4.4
O=C(O)Cc1cccnc1C(=O)O [Homoquinolinic acid]	-5.56 ± 10	0.22 ± 1.2	0.707 ± 0.21	-9.1 ± 7.1
O=Cc1cn(Cc2ccc(Cl)cc2)c2ccccc12 [Oncrasin 1]	-20.6 ± 23	-4.92 ± 0.77	-0.192	-10.7 ± 8
CCCN[C@@H]1CCc2c(OC)cccc2[C@@H]1C [(+)-AJ 76 hydrochloride]	0.185 ± 4	-7.68 ± 4.6	-2.76 ± 0.27	-18 ± 2.8
O=c1[nH]c2ccccc2n1CCCN1CCC(n2c(=O)[nH]c3cc(Cl)ccc32)CC1 [Domperidone]	-11.1 ± 3	-59.1 ± 52	-18.7 ± 6.4	-30 ± 0.81
C=CCN1CC[C@]2(C)c3cc(O)ccc3C[C@H]1C2C (single isomer, unassigned; (+))	-9.2 ± 6	-3.33 ± 1.6	-3.28 ± 0.066	-18.9 ± 3.2
CCC(Oc1ccc(Cl)cc1)C(=O)OC1C[C@H]2CC[C@@H](C1)N2C (stereo partly drawn) [SM-21 maleate]	-48.9 ± 16	-37.1 ± 8.3	-45 ± 5.4	-40.4 ± 1
c1ccc2sc(C3(N4CCCCC4)CCCCC3)cc2c1 [BTCP maleate]	-8.96 ± 0.67	-8.25 ± 4.2	-16.5 ± 3.2	-24.5 ± 1.9
CCCCC1(C2CCCC2)Cc2cc(OCCCC(=O)O)c(Cl)c(Cl)c2C1=O (stereo not drawn)	-189 ± 210	-43.8 ± 11	-8.51 ± 5.4	-172 ± 170
Cc1ncc(CN2CC=C(c3ccccc3)CC2)c(N)n1	-2.44 ± 3.8	-5.59 ± 6.6	-13.8 ± 17	-15.8 ± 13
